Measured values reported in the supplement of paper PMC3334620.
The full ranking holds about 33,000 sequences; the median of “E-score (-0.5 to 0.5)” is about -0.0034, and the highest 2% start at about 0.25. The list shows a part of the results.

biological target: T1, Yap3 (UniProt P38749); test: PBM E-score (8-mer binding enrichment) (E-score (-0.5 to 0.5)); higher = stronger / more preferred TF binding; settings: protein concentration: 100 nM; construct: GST-full length
T1 sequence: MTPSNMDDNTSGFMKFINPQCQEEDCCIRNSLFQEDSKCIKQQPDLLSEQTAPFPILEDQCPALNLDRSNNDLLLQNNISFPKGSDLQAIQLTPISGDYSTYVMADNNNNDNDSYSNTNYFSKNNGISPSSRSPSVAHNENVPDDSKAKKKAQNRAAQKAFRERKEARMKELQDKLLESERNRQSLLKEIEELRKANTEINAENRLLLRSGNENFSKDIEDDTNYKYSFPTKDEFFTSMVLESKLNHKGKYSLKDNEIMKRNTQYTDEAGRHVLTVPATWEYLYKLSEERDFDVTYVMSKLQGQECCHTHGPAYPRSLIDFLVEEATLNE
Method in brief: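 Yeast transcription factors, full-length or as DNA-binding domains, were expressed with a GST tag using PURExpress in vitro transcription/translation. At about 100-200 nM they were applied to universal all-10-mer Agilent arrays, double-stranded by primer extension on fresh or once-stripped slides. Fluorescent anti-GST detected bound protein, and masliner normalised the scans. E-scores for ungapped eight-base words, pooled with reverse complements, came from the Universal PBM Analysis Suite.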

Sequence	PBM E-score
AATCCGTG	-0.113
CAGGAGAA	-0.00803
ACATTCTC	0.104
ACCCAGAC	-0.175
CCTGTGAG	-0.0856
CCTTATCA	0.187
GAACCGGC	-0.127
ACACCGCG	-0.178
ATCTGTGG	-0.191
GCAGCAGA	-0.0581
GCGTTACA	0.0179
GAAAAAGA	0.252
GCAAAAAA	0.202
ATTCCGGA	0.136
GTTTTCTA	0.183
ATAATCCG	0.17
AGTACTTC	0.23
GCCCTGTA	0.054
ATTAAGTG	0.156
GGTTCAAA	-0.0457
CGCACCAG	-0.0528
AGAACCAG	0.0965
CGTATCCC	-0.126
CAGGAATC	0.09
TATAATGA	0.136

Sequence	PBM E-score
ATTTCATC	0.269
GCGCGGGA	-0.0479
GCGCCACC	-0.165
CAGACGCC	-0.132
AGGCGAAG	-0.078
CCGCCCAA	-0.109
GCGTTCCA	0.00484
ATTTGCAG	0.0193
GCATATTA	0.215
GCGTTTCC	0.0968
AGTCGTAG	-0.143
CAGAGGAG	-0.227
CAACGCTC	-0.00757
CCTTGGCC	-0.384
CCTTTCAC	0.0459
ATTGGCCG	-0.00271
GAGTTCTA	-0.0854
ATGATTCG	-0.0168
CTACCTTA	0.0241
TACAGGAA	0.167
GTACGTCA	0.267
AGCGTGAT	0.106
GACCGCAA	-0.111
GCGGTTCA	-0.0626
GCAACCTA	-0.0401

Sequence	PBM E-score
CCAGCACG	-0.128
CCCCCAAG	-0.253
AGCCGAAC	-0.105
ACATTCCT	0.0481
CATCTCTA	0.0212
AAGAACCG	0.139
ACGAACAG	0.0431
ATAAACAC	0.1
GCCAAAAA	0.0735
TGGGACAA	0.125
CGCCGATC	-0.0265
ACTTCTAT	0.108
CCTCCAGG	-0.401
AACTACAT	0.106
ATGCACGA	-0.0391
CACAAACC	0.0265
CTCAGGAC	-0.0963
ACATGGAG	-0.236
AGCATCAC	-0.0683
ATAATTAA	0.259
ACAAGTGT	-0.00448
GAGCTCCA	-0.179
GCATGAAA	0.176
CTGGTATC	-0.0149
CGCCCTGA	-0.0284

Sequence	PBM E-score
ACGATCTG	0.0119
AGCAGGGC	-0.158
GCACCGCC	-0.254
AAGACATT	-0.0286
GATCGGTA	0.0794
AGGATACA	0.0461
GTGGCGGA	-0.126
CCTTGGAA	-0.0618
GACAAGGA	-0.0488
CTAGTGCC	-0.274
AAACTCTT	-0.162
ACTACCAC	0.0697
CCTGAGCA	-0.0903
AGAAATCC	0.0494
AGGGATTA	0.0524
CGAAGAAG	0.0862
ACCCAAGC	-0.214
GAACGGGA	-0.0727
AATCCGTC	0.0988
GTACACAC	0.242
ACTACCTG	0.0736
GAGTGGCA	-0.00056
AGTCTCAA	-0.175
CAGCCACG	-0.0341
ACAAGGCA	-0.0311

Sequence	PBM E-score
CTAAATAC	0.0333
CTTGATGA	0.133
TGACTAAA	0.125
ACTAGGTA	0.0146
CCGACATA	0.0927
AAAAGGCT	-0.0958
TAACCAAA	0.213
TGGGCCCA	0.0816
GGCGTAAA	0.147
ATTGAGAA	0.17
ACCGTCGA	-0.147
CGAAGATC	0.0118
CGTCCATC	-0.116
AGTGGTAA	0.0605
ACCTGTCG	0.0682
CGTCGAAG	-0.0269
ACGAGGTC	-0.00365
ACCCGAAA	-0.0231
GGGTATTA	0.0348
GGCCGTAC	-0.0359
CATAGAGG	-0.0925
AGCATTAT	0.157
GCGGGTAA	-0.0735
ATACCGAG	-0.0707
CGTCATGA	0.0958

2 entries picked at random from the list so far:
Sequence	PBM E-score
ATACCGAG	-0.0707
CATAGAGG	-0.0925

Following part

Sequence	PBM E-score
ATTTGCCC	0.0985
ACTGGTAC	-0.00269
CTCATTTC	-0.0658
ATATGTGC	0.0272
CGTGAACA	0.031
AATTAGGC	0.155
GTCCTTAA	0.147
AATCCGGC	0.0559
CCCCCATC	-0.289
CCTAATTA	0.136
ATAGTCTA	-0.0503
TCCGTCCA	-0.00142
CGTAATAG	0.314
TAGGTCAA	0.0932
CCTTTCTC	-0.033
CGTACCGA	-0.0394
CAGTCATC	-0.27
CCACCTGC	-0.00772
ATATATTC	0.241
ACAAACAA	0.173
CTGCATCC	0.00606
AGCTCTCA	-0.171
CGAACGAA	0.108
AGTTTCTG	0.022
GAGCTTCA	0.0798

Sequence	PBM E-score
GTTTTGCA	0.0353
ACGAATTG	0.0568
AAGCTCTG	-0.179
GTTTAGTA	0.275
CTAAGCAA	-0.0294
GATCGAAC	-0.0957
GCGGTTAC	0.041
CAAGTTTA	0.0415
CCCAGTGC	-0.0688
AGTCTTTG	-0.178
GTAGTGGA	0.144
CCCTCCTC	-0.327
ACCACTCG	0.0759
ATACATAC	0.0937
ACCCTAGC	-0.189
ATAGCAGC	-0.0604
AAATAAGT	0.145
AACAGCAC	0.0426
AGGAATGC	-0.0871
AATCCGAG	0.00595
GCTGAGGA	-0.11
ACGGTTAG	-0.0943
TAACAGCA	0.183
AATCTCTC	-0.0515
ACGTACCA	0.118

Not a retest: entries from further up.
Sequence	PBM E-score
ACCGTCGA	-0.147
CGAAGATC	0.0118
CGTCCATC	-0.116

Next part

Sequence	PBM E-score
CGGATTCA	0.0218
GCATCGGA	0.0224
GGCCTTGA	-0.0754
TCTTTCAA	0.102
CTTTGACC	0.0628
CGCGCACG	-0.0669
GACATGAA	0.00571
CGCTTTCA	0.0529
CTACAAGA	-0.0715
CGTCTGTC	-0.0989
AATACTCG	0.131
TAAGCCTA	0.141
AACTATAA	0.186
CTTCTAAC	-0.21
CAGCTCCG	-0.111
CTCTAACC	-0.137
ACTTGGCA	-0.0663
GGACTTCA	-0.143
CGTAGCAG	-0.142
ACTACAAG	-0.0453
ACTTCGCG	0.0127
GATGGACC	0.0557
CGACGCAC	0.0329
GTTCTCAA	0.109
AGCCTATG	-0.0995

Sequence	PBM E-score
CACTTGCC	-0.0273
GCCACCAC	-0.279
CTCAACCC	-0.0853
CATGACCC	-0.0127
CTCAGGTC	-0.0312
GGAACAGA	0.121
CTGCCTAA	-0.0262
ATTTATGG	0.15
CCGCAGAA	0.137
GCATACGA	-0.062
ATGACCCG	-0.225
TCTTTGCA	0.0876
AAGCGTGC	-0.0546
CATGTAGC	-0.048
CGTTTTCC	0.159
AATTGTCG	0.0823
CCTCGAAA	0.00526
AAGGAGTA	0.0193
ATCGTCTA	0.0489
CGACGTGC	-0.0495
CGAACTTA	0.0175
CTTAACTC	0.107
AGTCGACA	0.0995
TATGGCCA	0.0682
AGAGCTCT	-0.171

Sequence	PBM E-score
AGCCCGAG	-0.24
CGGCCAGC	-0.167
GGCGATGA	-0.0696
CCAAGCCG	-0.135
ACCAGCAC	-0.0391
CAGGCGTA	-0.145
ACTTCCCT	-0.0641
TAAGTTGA	0.0954
ACAGTCAC	-0.196
GGCATACA	0.0706
CCCAGAGC	-0.219
GGTTCACA	-0.106
GAGTGCCC	-0.176
AAGGTATA	0.0493
ATCCGCGA	0.0412
CCCCAGAA	-0.168
CACCCACC	0.0143
TAAGCGCA	-0.0135
ACCAATGG	-0.013
CGCCCGCC	-0.288
ACGGGGCG	0.0648
CACGACGC	-0.211
CATGGCGC	-0.0288
ACGACTAG	0.0495
AACGCATG	0.0274

4 entries from above, reformatted:
AGCATCAC
  PBM E-score = -0.0683
ATAATTAA
  PBM E-score = 0.259
ACAAGTGT
  PBM E-score = -0.00448
GAGCTCCA
  PBM E-score = -0.179

Carrying on.

Sequence	PBM E-score
ATACATCG	0.0356
ATCCATTA	0.0954
AGATTTGC	0.192
CGCATCCG	-0.218
ACTCCTCA	-0.19
AGGTCGTA	0.185
AAAACCGC	-0.0529
AGTACAGC	-0.0284
AGTGCAGA	0.0664
AACAAGTT	0.0999
AAACTCCA	0.00461
ATACAATC	0.146
CTCACACC	-0.129
ACTACCAG	-0.159
AGTCATGG	0.0946
CGTGTGGC	-0.132
TCTATCAA	0.096
GCTATGCC	-0.216
CCCTGCTA	-0.155
AGAGAATG	0.144
AATAAAGT	0.262
ACCATGCG	0.0314
GGGTCGCA	-0.114
ATCGCCAA	-0.0269
GCTCTTGA	0.00079

Sequence	PBM E-score
CGCCTATC	0.0395
CATTGGTA	0.0377
ATGTCCTC	0.0898
AAGATGAA	0.0246
ACCCCTAT	0.0272
AGTATCCA	0.0266
ATCAAGAA	0.188
CAGTGTGA	0.137
CGATGTGC	-0.072
CGACCTGC	-0.223
GTCAACGA	0.11
TAACGCCA	0.082
TGATTACA	0.0968
AGCTACTG	-0.0662
CAACCTCC	-0.073
ATGCCTAG	-0.104
ACGTAGAG	-0.0452
CTGTATGA	-0.0424
CACCCTCC	-0.212
TAACTACA	0.121
CAAAACAC	0.0509
CTGCGCAA	0.091
CGATCCGA	0.112
CCCGACTC	-0.189
AGTGGAAG	-0.173

Sequence	PBM E-score
ATGAACTG	0.188
GATTGTTA	0.118
CCAGTAGC	0.00327
CCTCAGCG	0.0106
AACGAGCT	-0.091
AAACCTTC	-0.0816
TGATACAA	0.107
GTGCGTTA	0.0629
GATGGCCA	0.0238
ACTCCCAC	-0.173
CACCCTGA	-0.184
GACAGGAA	0.0869
ACCATTCT	-0.0214
AGTACCAT	0.0515
GCTCGCTA	-0.0227
AGTGAGAA	0.0772
TGGAATAA	0.061
ATAGGAGG	-0.179
CGACCGTC	-0.182
ACAACCGA	0.207
ATTATGCC	0.119
CAGACATG	-0.0317
AGCTACCC	-0.128
AAACCTCG	-0.132
ACAGTCCT	0.00188

Sequence	PBM E-score
ATCCTCAC	0.083
ATTGAAGA	-0.0376
AATTCACT	0.196
AGCGCGCG	0.165
GAGATTAC	0.173
CGCACGGA	0.0293
TCGCACCA	-0.0254
GCGGCCAC	-0.235
CGGTCGCC	-0.2
CTACACCC	-0.101
ATAAATAT	0.267
CTGAGGGC	-0.331
CGGTATCC	-0.117
ACCACACT	0.043
TTACCCAA	0.181
CGTGTAAC	-0.00675
ATCCCTCC	-0.0937
TAGTGCGA	0.00223
CCCTCGCG	-0.0461
